Data: paper PMC5435354
No constants are given. Whether binding was seen depends on the method and setting. In cells and extracts the contact can be indirect. For some assays here: A result given as binding can be weak or reduced; the word gives no strength. For some assays here: Where a sequence is shown, tags or fusion partners need not be part of it.

Experiments:
nVenus-PAD4 = target: T1, nVenus-PAD4 (UniProt Q9S745); assay: split reporter
T1 sequence: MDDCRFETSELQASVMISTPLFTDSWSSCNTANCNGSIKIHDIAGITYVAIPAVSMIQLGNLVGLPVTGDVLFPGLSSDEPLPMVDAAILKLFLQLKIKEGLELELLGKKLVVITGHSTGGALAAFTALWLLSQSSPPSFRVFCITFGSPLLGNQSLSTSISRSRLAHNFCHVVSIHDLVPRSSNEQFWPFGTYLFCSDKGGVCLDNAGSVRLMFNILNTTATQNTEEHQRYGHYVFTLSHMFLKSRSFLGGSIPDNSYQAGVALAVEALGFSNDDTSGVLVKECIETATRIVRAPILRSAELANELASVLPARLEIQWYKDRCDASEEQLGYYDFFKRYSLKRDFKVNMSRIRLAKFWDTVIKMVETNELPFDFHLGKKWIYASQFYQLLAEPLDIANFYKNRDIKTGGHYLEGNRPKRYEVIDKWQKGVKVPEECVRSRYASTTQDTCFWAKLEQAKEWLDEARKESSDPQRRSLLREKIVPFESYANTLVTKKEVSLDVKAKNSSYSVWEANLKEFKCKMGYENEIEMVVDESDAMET

nVenus-EDS1 = target: T2, nVenus-EDS1 (UniProt Q9SU72); assay: split reporter
T2 sequence: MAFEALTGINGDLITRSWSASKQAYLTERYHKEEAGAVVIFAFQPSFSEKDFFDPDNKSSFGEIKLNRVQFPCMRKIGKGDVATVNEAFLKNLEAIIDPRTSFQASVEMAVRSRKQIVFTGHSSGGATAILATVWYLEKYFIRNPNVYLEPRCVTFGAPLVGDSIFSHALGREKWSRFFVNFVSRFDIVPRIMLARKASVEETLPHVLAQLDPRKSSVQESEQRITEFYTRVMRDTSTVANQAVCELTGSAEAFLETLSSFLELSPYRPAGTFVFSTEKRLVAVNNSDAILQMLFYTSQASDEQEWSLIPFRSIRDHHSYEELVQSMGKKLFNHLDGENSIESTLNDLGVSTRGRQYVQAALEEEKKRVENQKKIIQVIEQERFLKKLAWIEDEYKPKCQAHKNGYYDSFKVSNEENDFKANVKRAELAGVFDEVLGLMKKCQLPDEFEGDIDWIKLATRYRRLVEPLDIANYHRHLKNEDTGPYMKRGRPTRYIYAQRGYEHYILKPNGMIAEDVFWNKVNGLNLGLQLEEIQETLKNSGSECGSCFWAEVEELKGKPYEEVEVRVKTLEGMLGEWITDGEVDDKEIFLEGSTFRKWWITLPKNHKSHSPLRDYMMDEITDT

[1] = target: T3, EDS1-Myc (C-terminally Myc-tagged EDS1) (UniProt Q9SU72); assay: co-IP
T3 sequence: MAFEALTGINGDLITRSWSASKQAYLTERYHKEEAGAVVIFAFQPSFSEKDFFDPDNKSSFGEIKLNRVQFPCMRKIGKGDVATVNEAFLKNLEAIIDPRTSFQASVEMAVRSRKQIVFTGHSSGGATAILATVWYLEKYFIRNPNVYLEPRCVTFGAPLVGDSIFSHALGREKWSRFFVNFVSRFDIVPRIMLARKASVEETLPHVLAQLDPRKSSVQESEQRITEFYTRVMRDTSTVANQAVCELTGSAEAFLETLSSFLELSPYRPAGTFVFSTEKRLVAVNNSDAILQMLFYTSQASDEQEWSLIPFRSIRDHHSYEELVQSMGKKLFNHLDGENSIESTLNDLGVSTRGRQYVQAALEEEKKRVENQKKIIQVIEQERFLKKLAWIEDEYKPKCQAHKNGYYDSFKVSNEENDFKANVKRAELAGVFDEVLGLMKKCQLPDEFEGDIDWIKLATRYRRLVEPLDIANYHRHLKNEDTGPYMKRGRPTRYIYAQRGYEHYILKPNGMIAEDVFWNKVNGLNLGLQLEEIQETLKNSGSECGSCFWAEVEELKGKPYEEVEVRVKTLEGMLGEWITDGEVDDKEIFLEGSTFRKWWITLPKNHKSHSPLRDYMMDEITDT

[2] = target: AvrRps4-GFP (Pseudomonas syringae) (UniProt Q48B92); assay: co-IP

Q: Which results are given for AvrRps4-cCFP (Pseudomonas syringae)?
A: binding (nVenus-PAD4): no binding; binding (nVenus-EDS1): binds

Q: How did the binding [1] turn out when “AvrRps4^E187A-GFP (Pseudomonas syringae)” was run?
A: binds

B1: PAD4-HA (phytoalexin deficient 4, HA-tagged) (protein, UniProt Q9S745 1-541)
chain: MDDCRFETSELQASVMISTPLFTDSWSSCNTANCNGSIKIHDIAGITYVAIPAVSMIQLGNLVGLPVTGDVLFPGLSSDEPLPMVDAAILKLFLQLKIKEGLELELLGKKLVVITGHSTGGALAAFTALWLLSQSSPPSFRVFCITFGSPLLGNQSLSTSISRSRLAHNFCHVVSIHDLVPRSSNEQFWPFGTYLFCSDKGGVCLDNAGSVRLMFNILNTTATQNTEEHQRYGHYVFTLSHMFLKSRSFLGGSIPDNSYQAGVALAVEALGFSNDDTSGVLVKECIETATRIVRAPILRSAELANELASVLPARLEIQWYKDRCDASEEQLGYYDFFKRYSLKRDFKVNMSRIRLAKFWDTVIKMVETNELPFDFHLGKKWIYASQFYQLLAEPLDIANFYKNRDIKTGGHYLEGNRPKRYEVIDKWQKGVKVPEECVRSRYASTTQDTCFWAKLEQAKEWLDEARKESSDPQRRSLLREKIVPFESYANTLVTKKEVSLDVKAKNSSYSVWEANLKEFKCKMGYENEIEMVVDESDAMET
Q: How did the binding [2] turn out when B1 was run?
A: binds

B2: RPS4-Myc (protein, UniProt Q9XGM3 1-1217)
chain: METSSISTVEDKPPQHQVFINFRGADLRRRFVSHLVTALKLNNINVFIDDYEDRGQPLDVLLKRIEESKIVLAIFSGNYTESVWCVRELEKIKDCTDEGTLVAIPIFYKLEPSTVRDLKGKFGDRFRSMAKGDERKKKWKEAFNLIPNIMGIIIDKKSVESEKVNEIVKAVKTALTGIPPEGSHNAVVGALGNSNAGTSSGDKKHETFGNEQRLKDLEEKLDRDKYKGTRIIGVVGMPGIGKTTLLKELYKTWQGKFSRHALIDQIRVKSKHLELDRLPQMLLGELSKLNHPHVDNLKDPYSQLHERKVLVVLDDVSKREQIDALREILDWIKEGKEGSRVVIATSDMSLTNGLVDDTYMVQNLNHRDSLQLFHYHAFIDDQANPQKKDFMKLSEGFVHYARGHPLALKVLGGELNKKSMDHWNSKMKKLAQSPSPNIVSVFQVSYDELTTAQKDAFLDIACFRSQDKDYVESLLASSDLGSAEAMSAVKSLTDKFLINTCDGRVEMHDLLYKFSREVDLKASNQDGSRQRRLWLHQHIIKGGIINVLQNKMKAANVRGIFLDLSEVEDETSLDRDHFINMGNLRYLKFYNSHCPQECKTNNKINIPDKLKLPLKEVRCLHWLKFPLETLPNDFNPINLVDLKLPYSEMEQLWEGDKDTPCLRWVDLNHSSKLCSLSGLSKAEKLQRLNLEGCTTLKAFPHDMKKMKMLAFLNLKGCTSLESLPEMNLISLKTLTLSGCSTFKEFPLISDNIETLYLDGTAISQLPMNMEKLQRLVVLNMKDCKMLEEIPGRVGELKALQELILSDCLNLKIFPEIDISFLNILLLDGTAIEVMPQLPSVQYLCLSRNAKISCLPVGISQLSQLKWLDLKYCTSLTSVPEFPPNLQCLDAHGCSSLKTVSKPLARIMPTEQNHSTFIFTNCENLEQAAKEEITSYAQRKCQLLSYARKRYNGGLVSESLFSTCFPGCEVPSWFCHETVGSELEVKLLPHWHDKKLAGIALCAVVSCLDPQDQVSRLSVTCTFKVKDEDKSWVAYTCPVGSWTRHGGGKDKIELDHVFIGYTSCPHTIKCHEEGNSDECNPTEASLKFTVTGGTSENGKYKVLKCGLSLVYAKDKDKNSALETKYDMLIGKSFQETSEGVDGRVKKTKGKYVMPVEKNFQETTEGVDGRVNKKKKTRMDNGRPKKKQRSGRDDNQTRMQVELQEGNINSVIMHTVKNF
Q: For B2, which binding [2] is on record?
A: binds
